Results taken from patent US20010016194A1, “COMPOUNDS THAT INHIBIT THE BINDING OF RAF-1 OR 14-3-3 PROTEINS TO THE BETA CHAIN OF IL-2 RECEPTOR, AND PHARMACEUTICAL COMPOSITIONS CONTAINING SAME” (priority 1999, published 2001).
Results are given in words; binding and its absence hold for the method and conditions named. Some results given as binding are weak or reduced against the parent protein; the word gives no strength.

Amino acid sequences for entries named in this document (tags omitted). A change or cut given only in a name is not applied to a line headed by its entry.
UniProt P14784: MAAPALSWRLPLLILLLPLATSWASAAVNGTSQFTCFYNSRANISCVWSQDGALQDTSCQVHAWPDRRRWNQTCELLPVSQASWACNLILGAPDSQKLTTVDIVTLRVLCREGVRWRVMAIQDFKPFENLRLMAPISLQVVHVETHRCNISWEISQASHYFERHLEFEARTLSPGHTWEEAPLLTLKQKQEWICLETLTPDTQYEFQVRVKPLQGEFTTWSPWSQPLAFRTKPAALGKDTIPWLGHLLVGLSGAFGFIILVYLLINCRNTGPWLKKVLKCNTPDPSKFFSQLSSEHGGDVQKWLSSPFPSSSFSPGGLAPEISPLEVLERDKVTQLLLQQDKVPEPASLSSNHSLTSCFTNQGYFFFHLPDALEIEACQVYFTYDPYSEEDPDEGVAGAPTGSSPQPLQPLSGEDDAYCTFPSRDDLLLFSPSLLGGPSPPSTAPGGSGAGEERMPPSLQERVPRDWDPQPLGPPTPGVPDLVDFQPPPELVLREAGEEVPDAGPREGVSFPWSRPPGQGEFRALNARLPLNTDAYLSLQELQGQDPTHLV

What was measured:
(His)6-Raf-1 protein [1] = target: (His)6-Raf-1 protein (UniProt P04049); test: totally cell-free pull-down on anti-FLAG beads, anti-Raf-1 immunoblot
(His)6-Raf-1 protein [2] = target: (His)6-Raf-1 protein (UniProt P04049); test: bacterial lysates mixed, anti-FLAG bead pull-down, immunoblot (FIG. 8c)

- binding ((His)6-Raf-1 protein [1]): binds
- binding ((His)6-Raf-1 protein [2]): binds
Substance: FLAG-HMK-IL-2Rβ chain cytoplasmic domain wild type fusion protein (from UniProt P14784 266-551) (receptor)
